Experimental data: paper PMC9859813
These are yes or no findings as the source states them, for the method shown. Binding seen in cells or lysates may run through a third protein. Some entries that bind do so weakly or less than the wild type. For some assays here: Tags and fused reporters may be left off the sequences shown.

T1: TRIM15 (tripartite motif family member TRIM15), endogenous (human (endogenous in Huh7 and Hep3B)) (UniProt Q9C019)
T1 sequence: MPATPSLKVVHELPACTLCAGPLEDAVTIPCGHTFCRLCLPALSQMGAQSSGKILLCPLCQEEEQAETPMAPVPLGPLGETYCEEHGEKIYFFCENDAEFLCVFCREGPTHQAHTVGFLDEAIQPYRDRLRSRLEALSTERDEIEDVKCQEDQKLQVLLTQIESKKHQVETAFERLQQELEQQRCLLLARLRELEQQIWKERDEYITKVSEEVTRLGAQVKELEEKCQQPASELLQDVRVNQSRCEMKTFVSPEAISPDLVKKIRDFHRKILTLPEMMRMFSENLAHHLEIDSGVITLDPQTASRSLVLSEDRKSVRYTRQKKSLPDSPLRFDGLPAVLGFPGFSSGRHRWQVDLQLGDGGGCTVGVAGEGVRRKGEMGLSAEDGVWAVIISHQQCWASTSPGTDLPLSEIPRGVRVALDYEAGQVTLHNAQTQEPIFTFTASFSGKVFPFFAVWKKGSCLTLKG

T2: GST-TRIM15 fusion protein (UniProt Q9C019)
T2 sequence: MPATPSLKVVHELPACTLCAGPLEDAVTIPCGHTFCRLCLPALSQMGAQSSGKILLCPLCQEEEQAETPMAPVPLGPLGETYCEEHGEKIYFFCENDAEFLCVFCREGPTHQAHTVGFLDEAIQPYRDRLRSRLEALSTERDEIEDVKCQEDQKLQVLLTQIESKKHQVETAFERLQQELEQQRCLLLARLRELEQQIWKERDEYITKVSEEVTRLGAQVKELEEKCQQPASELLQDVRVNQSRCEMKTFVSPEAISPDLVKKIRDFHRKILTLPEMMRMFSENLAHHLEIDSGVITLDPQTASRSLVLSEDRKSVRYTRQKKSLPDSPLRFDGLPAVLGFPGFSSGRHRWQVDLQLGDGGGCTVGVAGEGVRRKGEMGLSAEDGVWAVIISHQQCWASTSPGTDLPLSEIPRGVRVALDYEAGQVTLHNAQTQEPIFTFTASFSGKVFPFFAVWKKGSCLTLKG


Legend:
[1] = target: T1, TRIM15 (tripartite motif family member TRIM15), endogenous (human (endogenous in Huh7 and Hep3B)); test: co-IP; endogenous proteins; whole cell lysate of Huh7 and Hep3B in RIPA buffer; IgG, anti-TRIM15 or anti-LASP1 antibody with protein A + G beads, overnight in the cold room; Western blot
[2] = target: T2, GST-TRIM15 fusion protein; test: pull-down; GST fusion proteins immobilised on anti-GST magnetic beads, incubated with cell lysates (RIPA buffer) for 4 h; washed four times; Western blot; only the target purified

Binder	binding [1]	binding [2]
LASP1, endogenous (protein, UniProt Q14847 1-261) MNPNCARCGKIVYPTEKVNCLDKFWHKACFHCETCKMTLNMKNYKGYEKKPYCNAHYPKQSFTMVADTPENLRLKQQSELQSQVRYKEEFEKNKGKGFSVVADTPELQRIKKTQDQISNIKYHEEFEKSRMGPSGGEGMEPERRDSQDGSSYRRPLEQQQPHHIPTSAPVYQQPQQQPVAQSYGGYKEPAAPVSIQRSAPGGGGKRYRAVYDYSAADEDEVSFQDGDTIVNVQQIDDGWMYGTVERTGDTGMLPANYVEAI	binds	–
HA-LASP1 (protein, UniProt Q14847 1-261) MNPNCARCGKIVYPTEKVNCLDKFWHKACFHCETCKMTLNMKNYKGYEKKPYCNAHYPKQSFTMVADTPENLRLKQQSELQSQVRYKEEFEKNKGKGFSVVADTPELQRIKKTQDQISNIKYHEEFEKSRMGPSGGEGMEPERRDSQDGSSYRRPLEQQQPHHIPTSAPVYQQPQQQPVAQSYGGYKEPAAPVSIQRSAPGGGGKRYRAVYDYSAADEDEVSFQDGDTIVNVQQIDDGWMYGTVERTGDTGMLPANYVEAI	–	binds
